Experimental data from the supplement of paper PMC12823440, “Inhibitors supercharge kinase turnover through native proteolytic circuits” (Nature, 2025).
This is one part of the list. Hit calls seldom repeat between salt and free forms of one compound.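 In K562 cells expressing nanoluciferase-fused kinases, luminescence was recorded at 4 h intervals between 2 and 18 h, normalized as percent of control with DMSO at 100% and a positive control at 0%. A significant (2 sigma) signal drop marks a time point as decreased. The authors' rule for a hit is not shown and takes in more than the number of time points.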

Protein sequences, listed by entry. Tags and fused reporters are not part of them. Lines headed by an entry give the natural chain unless they say otherwise; changes in a name come on top.
UniProt P07947, whole entry, looked up: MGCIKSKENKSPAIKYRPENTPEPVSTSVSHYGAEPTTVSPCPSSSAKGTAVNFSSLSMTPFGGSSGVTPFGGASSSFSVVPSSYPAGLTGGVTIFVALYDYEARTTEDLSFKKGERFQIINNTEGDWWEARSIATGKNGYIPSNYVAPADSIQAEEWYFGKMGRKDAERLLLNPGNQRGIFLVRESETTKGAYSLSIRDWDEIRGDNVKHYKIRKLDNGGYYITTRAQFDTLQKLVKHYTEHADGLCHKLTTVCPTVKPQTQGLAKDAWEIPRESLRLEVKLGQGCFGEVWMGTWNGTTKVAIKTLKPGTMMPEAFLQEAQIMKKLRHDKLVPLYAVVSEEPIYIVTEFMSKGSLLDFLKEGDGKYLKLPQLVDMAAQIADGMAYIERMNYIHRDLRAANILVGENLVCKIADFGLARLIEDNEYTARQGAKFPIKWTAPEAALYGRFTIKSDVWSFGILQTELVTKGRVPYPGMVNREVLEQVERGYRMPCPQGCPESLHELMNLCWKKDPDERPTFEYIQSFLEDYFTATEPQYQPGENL
UniProt P43403: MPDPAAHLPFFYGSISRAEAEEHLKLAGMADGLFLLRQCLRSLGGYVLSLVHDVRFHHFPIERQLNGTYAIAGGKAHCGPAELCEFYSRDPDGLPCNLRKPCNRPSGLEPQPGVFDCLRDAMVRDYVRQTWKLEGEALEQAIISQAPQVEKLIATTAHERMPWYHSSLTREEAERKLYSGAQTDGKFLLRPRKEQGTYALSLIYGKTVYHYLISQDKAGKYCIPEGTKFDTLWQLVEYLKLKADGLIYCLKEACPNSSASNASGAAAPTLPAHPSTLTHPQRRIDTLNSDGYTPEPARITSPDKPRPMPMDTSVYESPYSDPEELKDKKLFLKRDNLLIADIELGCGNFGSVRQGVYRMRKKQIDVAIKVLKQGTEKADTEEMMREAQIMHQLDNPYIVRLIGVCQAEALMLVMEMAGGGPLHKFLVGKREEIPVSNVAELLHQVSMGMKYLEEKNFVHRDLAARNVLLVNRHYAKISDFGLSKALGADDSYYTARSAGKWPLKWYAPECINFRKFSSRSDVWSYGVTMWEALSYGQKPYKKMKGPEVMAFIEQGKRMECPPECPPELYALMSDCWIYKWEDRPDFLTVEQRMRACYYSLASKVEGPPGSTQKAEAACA
UniProt P11802: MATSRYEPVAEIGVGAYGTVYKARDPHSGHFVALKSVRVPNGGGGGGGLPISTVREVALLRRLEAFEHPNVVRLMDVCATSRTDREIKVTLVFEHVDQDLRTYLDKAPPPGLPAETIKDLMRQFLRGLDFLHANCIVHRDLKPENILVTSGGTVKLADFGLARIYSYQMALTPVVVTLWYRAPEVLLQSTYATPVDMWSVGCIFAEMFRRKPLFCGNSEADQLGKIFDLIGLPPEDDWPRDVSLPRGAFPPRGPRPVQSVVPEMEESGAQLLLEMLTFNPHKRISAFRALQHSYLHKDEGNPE
UniProt P50613: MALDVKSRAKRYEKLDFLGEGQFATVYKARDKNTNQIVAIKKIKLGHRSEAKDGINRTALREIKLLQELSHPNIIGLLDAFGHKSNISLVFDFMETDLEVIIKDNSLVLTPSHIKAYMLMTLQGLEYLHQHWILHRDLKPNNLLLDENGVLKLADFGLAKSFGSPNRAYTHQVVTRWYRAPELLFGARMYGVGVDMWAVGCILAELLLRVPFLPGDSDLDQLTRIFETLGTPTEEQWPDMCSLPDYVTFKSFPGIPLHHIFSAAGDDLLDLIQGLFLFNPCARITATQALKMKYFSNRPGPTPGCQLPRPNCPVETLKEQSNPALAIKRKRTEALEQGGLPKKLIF
UniProt P50750, whole entry: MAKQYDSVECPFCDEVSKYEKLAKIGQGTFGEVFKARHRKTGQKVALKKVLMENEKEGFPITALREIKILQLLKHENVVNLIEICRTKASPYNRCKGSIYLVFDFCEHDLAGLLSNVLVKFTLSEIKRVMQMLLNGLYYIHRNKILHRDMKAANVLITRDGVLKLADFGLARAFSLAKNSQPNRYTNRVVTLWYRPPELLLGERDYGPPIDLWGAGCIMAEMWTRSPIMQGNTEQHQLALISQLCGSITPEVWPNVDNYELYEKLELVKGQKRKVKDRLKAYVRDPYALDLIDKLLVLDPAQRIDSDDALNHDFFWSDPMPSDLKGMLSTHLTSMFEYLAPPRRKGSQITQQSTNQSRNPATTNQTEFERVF

Assays:
Details in all cases: K562; 2-18 h
YES1 = YES1 (UniProt P07947); test: number of time points (of 5) at which kinase-Nluc abundance scored as decreased, DMSO-normalised (count); higher = more persistent destabilization
ZAK = ZAK (UniProt Q9NYL2); test: as above
ZAP70 = ZAP70 (UniProt P43403); test: as above
CDK4 = CDK4 (UniProt P11802); test: number of time points (of 4; 2 h point missing) at which kinase-Nluc abundance scored as decreased, DMSO-normalised (count); higher = more persistent destabilization
CDK7 = CDK7 (UniProt P50613); test: as above
CDK9 = CDK9 (UniProt P50750); test: as above

Measured: number of time points

COCc1c(-c2ccc(NC(=O)Nc3cc(C(F)(F)F)ccc3F)c(F)c2)c2c(N)ncnn2c1CN1CCOCC1 (2.5 µM)
0: YES1 | ZAK | ZAP70 | CDK4
3: CDK7 | CDK9

COCCNCCc1cccc(Nc2ncc3c(n2)-c2ccccc2[C@H](c2ccccc2F)C3)c1 [Derazantinib] (2.5 µM)
0: YES1 | ZAK | ZAP70 | CDK4 | CDK7 | CDK9

O=c1c(-c2ccc(O)cc2)coc2cc(O)cc(O)c12 [Genistein] (10 µM)
0: YES1 | ZAK | ZAP70 | CDK4 | CDK7 | CDK9

COc1cc2ncnc(Nc3ccc(O)cc3)c2cc1OC (10 µM)
0: YES1 | ZAK | ZAP70 | CDK4 | CDK7 | CDK9

CCCS(=O)(=O)Nc1ccc(F)c(C(=O)c2c[nH]c3ncc(Cl)cc23)c1F (10 µM)
0: YES1 | ZAK | ZAP70 | CDK4 | CDK7 | CDK9

O=c1cc(N2CCOCC2)oc2c(-c3ccccc3)cccc12 (10 µM)
0: YES1 | ZAK | ZAP70 | CDK4 | CDK7 | CDK9

O=c1c(O)c(-c2ccc(O)c(O)c2)oc2cc(O)cc(O)c12 [Quercetin (dihydrate)] (10 µM)
0: YES1 | ZAK | ZAP70 | CDK4 | CDK7 | CDK9

O=C(NOC[C@H](O)CO)c1ccc(F)c(F)c1Nc1ccc(I)cc1F (2.5 µM)
0: YES1 | ZAK | ZAP70 | CDK4 | CDK7 | CDK9

Cc1ccc(F)c(NC(=O)Nc2ccc(-c3cccc4[nH]nc(N)c34)cc2)c1 [Linifanib] (2.5 µM)
0: YES1 | ZAP70 | CDK4 | CDK7 | CDK9
3: ZAK

NC(=O)c1ccc(-c2nc(-c3ccccn3)c(-c3ccc4c(c3)OCO4)[nH]2)cc1 (10 µM)
0: YES1 | ZAK | ZAP70 | CDK4 | CDK7 | CDK9

C=CC(=O)Nc1ccc2ncnc(Nc3cccc(Br)c3)c2c1 (10 µM)
0: YES1 | ZAK | ZAP70 | CDK4 | CDK7 | CDK9

NS(=O)(=O)c1ccc(Nc2nc(OCC3CCCCC3)c3[nH]cnc3n2)cc1 (10 µM)
0: YES1 | ZAK | ZAP70 | CDK4 | CDK7 | CDK9

CC(C)CC(=O)Nc1n[nH]c2c1CN(C(=O)C1CCN(C)CC1)C2(C)C (2.5 µM)
2: CDK9
0: YES1 | ZAK | ZAP70 | CDK4 | CDK7

Cc1ncc(-c2ccnc(Nc3ccc(S(C)(=O)=O)cc3)n2)n1C(C)C (2.5 µM)
0: YES1 | ZAK | ZAP70 | CDK4 | CDK9
3: CDK7

Cc1c(NC(=O)c2cc3c(s2)CCCC3)cccc1-c1cn(C)c(=O)c(Nc2ccc([C@@H]3C(=O)N(C)CCN3C)cc2)n1 (10 µM)
0: YES1 | ZAK | ZAP70 | CDK4 | CDK7 | CDK9

C[C@H](CN(C)C)Oc1nc(Nc2cc3cccc(Cl)c3cn2)cnc1C#N (10 µM)
1: CDK7
0: YES1 | ZAK | ZAP70 | CDK4 | CDK9

CN(C)CCOc1ccc(-c2nc(-c3ccncc3)c(-c3ccc4c(c3)CC/C4=N\O)[nH]2)cc1 (10 µM)
0: YES1 | ZAK | ZAP70 | CDK4 | CDK7 | CDK9

CCN1C(=O)N(c2c(F)c(OC)cc(OC)c2F)Cc2cnc3[nH]c(CN4CCOCC4)cc3c21 [Pemigatinib] (10 µM)
0: YES1 | ZAK | ZAP70 | CDK4 | CDK7 | CDK9

Cc1ccc2c(Nc3ccc(Cl)cc3)nccc2c1Nc1ncccc1-c1ncnc2nc[nH]c12 [Raf inhibitor 1] (2.5 µM)
0: YES1 | ZAK | ZAP70 | CDK4 | CDK7 | CDK9

C=CC(=O)N1CC[C@H](n2nc(C#Cc3cc(OC)cc(OC)c3)c3c(N)ncnc32)C1 [Futibatinib] (10 µM)
0: YES1 | ZAK | ZAP70 | CDK4 | CDK7 | CDK9

CC(C)(C)n1nc(Cc2cccc3ccccc23)c2c(N)ncnc21 (10 µM)
0: YES1 | ZAK | ZAP70 | CDK4 | CDK7 | CDK9

O=c1cc(-c2ccccc2)oc2c(O)c(O)ccc12 [7,8-Dihydroxyflavone] (10 µM)
0: YES1 | ZAK | ZAP70 | CDK4 | CDK7 | CDK9

COc1nccc(-c2c(-c3ccc(F)cc3)ncn2C2CCC(O)CC2)n1 (stereo not drawn) (10 µM)
0: YES1 | ZAK | ZAP70 | CDK4 | CDK7 | CDK9

N#CC(=Cc1ccc(O)c(O)c1)C(=O)NCc1ccccc1 (mixture of isomers) (10 µM)
0: YES1 | ZAK | ZAP70 | CDK4 | CDK7 | CDK9

CN1CCN(c2ccc(C(=O)Nc3n[nH]c4ccc(Cc5cc(F)cc(F)c5)cc34)c(NC3CCOCC3)c2)CC1 [Entrectinib] (2.5 µM)
0: YES1 | ZAK | ZAP70 | CDK4 | CDK7 | CDK9

CCN1CCN(Cc2ccc(C(=O)Nc3ccc(C)c(Oc4ccc5c(c4)CC(=O)N5)c3)cc2C(F)(F)F)CC1 (2.5 µM)
3: CDK7
1: YES1 | ZAK | CDK9
0: ZAP70 | CDK4

Random excerpt: 2 compounds from above.
CCN1CCN(Cc2ccc(C(=O)Nc3ccc(C)c(Oc4ccc5c(c4)CC(=O)N5)c3)cc2C(F)(F)F)CC1 (2.5 µM)
3: CDK7
1: YES1 | ZAK | CDK9
0: ZAP70 | CDK4

C=CC(=O)N1CC[C@H](n2nc(C#Cc3cc(OC)cc(OC)c3)c3c(N)ncnc32)C1 [Futibatinib] (10 µM)
0: YES1 | ZAK | ZAP70 | CDK4 | CDK7 | CDK9

Next compounds

CCN(CC)CCCCNc1ncc2cc(-c3c(Cl)cccc3Cl)c(NC(=O)NC(C)(C)C)nc2n1 (2.5 µM)
1: CDK4
0: YES1 | ZAK | ZAP70
2: CDK9
3: CDK7

Cc1ccc(NC(=O)Nc2nnc(Sc3ncnc4cc(OCCCN5CCOCC5)ccc34)s2)cc1 (10 µM)
0: YES1 | ZAK | ZAP70 | CDK4 | CDK7 | CDK9

CN(C)C(=O)/C(C#N)=C/c1ccc(-c2nc3cnc4[nH]ccc4c3n2C2CCCCC2)o1 (10 µM)
0: YES1 | ZAK | ZAP70 | CDK4 | CDK7 | CDK9

C/C=C(/C)C(=O)O[C@H]1Cc2cc3ccc(=O)oc3cc2OC1(C)C [Decursinol angelate] (10 µM)
0: YES1 | ZAK | ZAP70 | CDK4 | CDK7 | CDK9

COc1cc(C=C(C#N)C(N)=O)cc(CSc2nc3ccccc3s2)c1O (10 µM)
0: YES1 | ZAK | ZAP70 | CDK4 | CDK7 | CDK9

CCCn1cnc2c(NCc3ccccc3)nc(NC(CC)CO)nc21 (stereo not drawn) [Ca2+ channel agonist 1] (2.5 µM)
0: YES1 | ZAK | ZAP70 | CDK4 | CDK7 | CDK9

Nc1ncnc2c1c(-c1cccc(OCc3ccccc3)c1)cn2C1CC(CN2CCCC2)C1 (stereo not drawn) (2.5 µM)
0: YES1 | ZAK | ZAP70 | CDK4 | CDK7 | CDK9

COc1ccc(F)c(F)c1C(=O)c1cnc(NC2CCN(S(C)(=O)=O)CC2)nc1N (2.5 µM)
1: CDK9
3: CDK7
0: ZAK | ZAP70 | CDK4
2: YES1

CC(C)C(=O)Nc1ncc(-c2cc(C(F)F)nn2-c2c(Cl)cccc2Cl)s1 (10 µM)
3: CDK4
4: CDK7
0: YES1 | ZAK | ZAP70 | CDK9

Cc1[nH]c(/C=C2\C(=O)Nc3ccc(S(=O)(=O)Cc4c(Cl)cccc4Cl)cc32)c(C)c1C(=O)N1CCC[C@@H]1CN1CCCC1 (2.5 µM)
0: YES1 | ZAK | ZAP70 | CDK4 | CDK7 | CDK9

Cc1c[nH]c2ccccc12 [Skatole] (10 µM)
0: YES1 | ZAK | ZAP70 | CDK4 | CDK7 | CDK9

COc1c(CC=C(C)C)c(O)cc2oc(=O)c(-c3ccc(O)cc3O)cc12 [Glycycoumarin] (10 µM)
0: YES1 | ZAK | ZAP70 | CDK4 | CDK7 | CDK9
